Taken from: PubChem BioAssay AID1224830 (NIAID, 2016)
Here is one part, drawn at random, of about 18,000 reagents. About 2,900 of them (16%) were called active. 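Calls are made per well; low scores hint the gene aids the LPS response, high scores that it dampens it.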 Unmarked entries are inactive. Repeated entries: four replicate wells of each siRNA pool. Reagent sequences are not shown.

Aim: 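Genes whose knock-down alters the TNF-alpha reporter response to LPS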 (primary screen)
System: human THP-1 monocytic leukaemia cells, TNF dual-luciferase reporter clone, PMA-differentiated to macrophage-like cells
Reagents: siRNA pool against human genes, 50 nM
Duration: LPS for 4 h, given about 3 days after siRNA transfection
Conditions: bacterial LPS (TLR4 ligand), 10 ng/ml
Read-out: 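Ratio of firefly to renilla light, scaled to the plate median and expressed as a robust z-score per replicate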
Direction: TNF reporter robust z-score: higher = stronger TNF reporter response to LPS
Call rule: 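a well is active when its z-score exceeds 2.8 or falls below -1.5; control wells carry no call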

TNF reporter robust z-score	gene knocked down
0.09	EDA2R (ectodysplasin A2 receptor)
0.86	EDA2R (ectodysplasin A2 receptor)
0.45	EDA2R (ectodysplasin A2 receptor)
1.73	EDA2R (ectodysplasin A2 receptor)
0.05	WTAP (WT1 associated protein)
0	WTAP (WT1 associated protein)
-0.59	WTAP (WT1 associated protein)
3.36 (active)	WTAP (WT1 associated protein)
0.02	PRCC (proline rich mitotic checkpoint control factor)
0.28	PRCC (proline rich mitotic checkpoint control factor)
-0.04	PRCC (proline rich mitotic checkpoint control factor)
0.74	PRCC (proline rich mitotic checkpoint control factor)
0.83	TRIM7 (tripartite motif containing 7)
0.71	TRIM7 (tripartite motif containing 7)
-1.11	TRIM7 (tripartite motif containing 7)
0.31	TRIM7 (tripartite motif containing 7)
-0.68	RNF123 (ring finger protein 123)
-0.8	RNF123 (ring finger protein 123)
1.4	RNF123 (ring finger protein 123)

5 entries from above, ordered by “TNF reporter robust z-score”, lowest first.
TNF reporter robust z-score	gene knocked down
-0.59	WTAP (WT1 associated protein)
-0.04	PRCC (proline rich mitotic checkpoint control factor)
0.02	PRCC (proline rich mitotic checkpoint control factor)
0.28	PRCC (proline rich mitotic checkpoint control factor)
3.36 (active)	WTAP (WT1 associated protein)

Next reagents follow.
TNF reporter robust z-score	gene knocked down
-0.94	RPF1 (ribosome production factor 1 homolog)
-0.81	RPF1 (ribosome production factor 1 homolog)
-1.22	RPF1 (ribosome production factor 1 homolog)
-1.04	RPF1 (ribosome production factor 1 homolog)
-1.04	SERTAD4 (SERTA domain containing 4)
0.19	SERTAD4 (SERTA domain containing 4)
-1.23	SERTAD4 (SERTA domain containing 4)
-0.91	SERTAD4 (SERTA domain containing 4)
0.95	NDUFB5 (NADH:ubiquinone oxidoreductase subunit B5)
0.98	NDUFB5 (NADH:ubiquinone oxidoreductase subunit B5)
0.43	NDUFB5 (NADH:ubiquinone oxidoreductase subunit B5)
0.88	NDUFB5 (NADH:ubiquinone oxidoreductase subunit B5)
-1.44	TRAIP (TRAF interacting protein)
0.22	TRAIP (TRAF interacting protein)
-1.62 (active)	TRAIP (TRAF interacting protein)
0.28	TRAIP (TRAF interacting protein)
1.19	CRYGS (crystallin gamma S)
0.14	CRYGS (crystallin gamma S)
0.07	CRYGS (crystallin gamma S)
0.94	CRYGS (crystallin gamma S)
-1.77 (active)	ZDHHC4 (zDHHC palmitoyltransferase 4)
-1.48	ZDHHC4 (zDHHC palmitoyltransferase 4)
-1.71 (active)	ZDHHC4 (zDHHC palmitoyltransferase 4)
-0.19	CD83 (CD83 molecule)
0.77	CD83 (CD83 molecule)
-0.62	CD83 (CD83 molecule)
0.28	CD83 (CD83 molecule)
